Measured values reported in publication PMC13036035.
No constants are given. Whether binding was seen depends on the method and setting. In cells and extracts the contact can be indirect. Some entries that bind do so weakly or less than the wild type.

Amino acid sequences for entries named in this document (tags omitted).
UniProt P49588: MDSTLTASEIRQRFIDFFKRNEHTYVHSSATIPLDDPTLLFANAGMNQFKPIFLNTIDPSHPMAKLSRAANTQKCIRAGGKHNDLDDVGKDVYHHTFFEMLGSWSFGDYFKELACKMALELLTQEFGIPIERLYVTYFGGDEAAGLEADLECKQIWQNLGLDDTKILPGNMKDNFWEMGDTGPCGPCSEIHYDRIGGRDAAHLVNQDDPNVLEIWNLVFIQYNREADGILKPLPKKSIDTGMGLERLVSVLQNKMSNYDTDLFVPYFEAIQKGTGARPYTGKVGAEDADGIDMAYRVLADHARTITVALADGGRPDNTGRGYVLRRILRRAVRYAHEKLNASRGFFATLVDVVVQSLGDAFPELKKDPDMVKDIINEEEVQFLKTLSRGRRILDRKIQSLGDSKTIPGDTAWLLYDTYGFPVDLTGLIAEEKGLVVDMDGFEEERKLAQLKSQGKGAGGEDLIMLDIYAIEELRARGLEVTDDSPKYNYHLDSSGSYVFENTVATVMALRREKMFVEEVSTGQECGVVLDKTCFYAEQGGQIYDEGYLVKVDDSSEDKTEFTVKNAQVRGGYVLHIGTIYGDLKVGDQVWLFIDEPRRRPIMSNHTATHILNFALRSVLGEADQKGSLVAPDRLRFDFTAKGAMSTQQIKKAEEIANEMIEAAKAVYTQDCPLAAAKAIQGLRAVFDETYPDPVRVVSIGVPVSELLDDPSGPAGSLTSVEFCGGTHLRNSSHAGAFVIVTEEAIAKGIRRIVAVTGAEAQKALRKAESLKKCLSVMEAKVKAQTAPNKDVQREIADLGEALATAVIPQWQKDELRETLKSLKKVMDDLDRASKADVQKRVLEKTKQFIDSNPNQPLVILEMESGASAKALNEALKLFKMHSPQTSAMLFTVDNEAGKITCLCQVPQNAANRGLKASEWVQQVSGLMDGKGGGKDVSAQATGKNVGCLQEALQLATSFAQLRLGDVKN
UniProt P42224: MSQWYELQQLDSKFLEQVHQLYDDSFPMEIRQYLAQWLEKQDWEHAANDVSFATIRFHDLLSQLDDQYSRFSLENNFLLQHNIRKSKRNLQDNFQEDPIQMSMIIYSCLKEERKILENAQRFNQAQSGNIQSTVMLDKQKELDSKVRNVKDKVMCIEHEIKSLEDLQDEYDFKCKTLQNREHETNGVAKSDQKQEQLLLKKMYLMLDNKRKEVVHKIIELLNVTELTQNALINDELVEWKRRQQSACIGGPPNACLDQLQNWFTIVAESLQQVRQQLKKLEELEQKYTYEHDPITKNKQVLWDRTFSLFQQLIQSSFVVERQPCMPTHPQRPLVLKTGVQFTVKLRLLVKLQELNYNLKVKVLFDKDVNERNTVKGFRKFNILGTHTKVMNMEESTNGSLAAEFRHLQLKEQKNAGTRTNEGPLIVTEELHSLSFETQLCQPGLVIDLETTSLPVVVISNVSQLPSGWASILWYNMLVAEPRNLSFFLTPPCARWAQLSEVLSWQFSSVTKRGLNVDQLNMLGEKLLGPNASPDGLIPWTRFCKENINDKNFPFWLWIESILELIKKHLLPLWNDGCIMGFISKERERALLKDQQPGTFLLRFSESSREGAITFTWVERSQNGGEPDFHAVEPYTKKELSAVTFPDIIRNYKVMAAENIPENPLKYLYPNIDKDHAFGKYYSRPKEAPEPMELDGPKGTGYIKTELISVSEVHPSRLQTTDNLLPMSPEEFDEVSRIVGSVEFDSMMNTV

Biological target: Alanyl-tRNA synthetase 1 (AARS1) (human (endogenous in HGECs and HK-2 cells)) (UniProt P49588)
Assay: co-IP; co-immunoprecipitation in HGECs and HK-2 cells; performed as described previously (ref. 19)

For “signal transducer and activator of transcription 1 (STAT1) (from UniProt P42224 1-750)”, the binding was “binds”.
